Test results reported in the METLIN SMRT retention time set (Domingo-Almenara et al. 2019).

Assay: gradient 5% acetonitrile 3 min, to 50% in 2 min, to 85% in 15 min, held 3 min, 100 µL/min
Settings: column: Zorbax Extend-C18 2.1 x 50 mm; eluents: water / acetonitrile, 0.1% formic acid
Method in brief: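 Retention times of pure standards were taken from adduct peaks that were selected by computer and manually inspected. Over 3 months, mixtures of ~100 molecules were run by HPLC–quadrupole time-of-flight mass spectrometry in positive and negative ionization mode. The Zorbax Extend-C18 column (2.1 × 50 mm, 1.8 μm) ran at 100 μL/min in water and acetonitrile, each containing 0.1% formic acid, with 40 μL dead volume and 900 μL dwell volume.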

RP-LC retention time: 673 s
Structure (SMILES): COc1ccc(S(=O)(=O)N2CCCCC2)cc1C(=O)O
